Results deposited as PubChem BioAssay AID1259405 (NCATS, 2018).
The whole screen tested about 50,000 reagents; this is a random part of them. About 4,000 of them (8%) count as active. 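Mouse siRNA library applied to hamster cells; one well for each siRNA.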 A number with no mark means an inactive call. The numbers tell different reagents against one gene apart. Reagent sequences are not shown.

Assay: 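Knock-downs that lift recombinant protein yield in hamster ovary cells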 (primary screen)
Cell system: Chinese hamster CHO-K1 ovary cells with stable secreted eGFP expression
Reagents: single siRNA against mouse genes, 0.8 pmol siRNA per well (2 µl of 400 nM stock)
Timing: 3 days
Measured: 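Per-well intracellular GFP measured by laser scanning cytometry, plus viability from ATP luminescence, each relative to plate median of non-targeting control wells, in %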
Direction: GFP, % of control: higher = more GFP per well, higher productivity; viability (ATP), % of control: higher = more viable cells (more ATP)
Active means: 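Called active when intracellular GFP, relative to negative control, is at or above 120%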

| gene | siRNA no. | GFP, % of control | viability (ATP), % of control |
| --- | --- | --- | --- |
| Ephx4 | 1 | 77.8 | 71.2 |
| Ephx4 | 2 | 94.2 | 87.9 |
| Ephx4 | 3 | 71 | 63.5 |
| Sox1 | 1 | 97.3 | 80.8 |
| Sox1 | 2 | 93.7 | 71.3 |
| Sox1 | 3 | 48.9 | 96.9 |
| Mpc1 | 1 | 77.6 | 74.8 |
| Mpc1 | 2 | 71.2 | 76.5 |
| Mpc1 | 3 | 95.4 | 148 |
| Zfp599 | 1 | 75.8 | 75.1 |
| Zfp599 | 2 | 60.5 | 65 |
| Zfp599 | 3 | 100 | 89.7 |
| Or1j13 | 1 | 91.3 | 94 |
| Or1j13 | 2 | 79.9 | 78.9 |
| Or1j13 | 3 | 42.5 | 73.4 |
| Traf5 | 1 | 60.3 | 46.1 |
| Traf5 | 2 | 59.9 | 84.8 |
| Traf5 | 3 | 65.9 | 68.5 |
| Togaram1 | 1 | 120 | 61.3 |
| Togaram1 | 2 | 69.3 | 71.6 |
| Togaram1 | 3 | 92.2 | 81.3 |
| Speer4b | 1 | 134 (active) | 119 |
| Speer4b | 2 | 64.9 | 81.8 |
| Speer4b | 3 | 218 (active) | 135 |
| Sebox | 1 | 78.4 | 77.5 |
| Sebox | 2 | 60.7 | 55.3 |
| Sebox | 3 | 75.4 | 86.1 |
| Hpgds | 1 | 82.1 | 100 |
| Hpgds | 2 | 72.4 | 53.7 |
| Hpgds | 3 | 78.2 | 88.7 |
| Tomm22 | 1 | 51.4 | 71.1 |
| Tomm22 | 2 | 71.1 | 65 |
| Tomm22 | 3 | 54.2 | 66.1 |
| Cbx1 | 1 | 110 | 99 |
| Cbx1 | 2 | 70.2 | 67.9 |
| Cbx1 | 3 | 64.7 | 77.8 |
| Ifngr1 | 1 | 80.1 | 87.4 |
| Ifngr1 | 2 | 71.3 | 77 |
| Ifngr1 | 3 | 89.9 | 72.6 |
| Afap1 | 1 | 108 | 68.8 |
| Afap1 | 2 | 86.2 | 66.3 |
| Afap1 | 3 | 62.2 | 56.3 |
| Nkx6-1 | 1 | 52.1 | 74.8 |
| Nkx6-1 | 2 | 46.6 | 57.3 |
| Lrrc52 | 1 | 31.1 | 32.1 |
| Lrrc52 | 2 | 88.2 | 99.5 |
| Lrrc52 | 3 | 197 (active) | 112 |
| Plxdc1 | 1 | 70.8 | 59.5 |
| Plxdc1 | 2 | 81.7 | 89.4 |
| Plxdc1 | 3 | 77.2 | 118 |
| Dnajb6 | 1 | 79 | 76.1 |
| Dnajb6 | 2 | 105 | 100 |
| Dnajb6 | 3 | 58 | 49.3 |
| Neurl1a | 1 | 66.4 | 65.5 |
| Neurl1a | 2 | 121 (active) | 46.6 |
| Neurl1a | 3 | 86.7 | 96.7 |
| Tnfrsf11a | 1 | 113 | 90.3 |
| Tnfrsf11a | 2 | 56.6 | 58.7 |
| Tnfrsf11a | 3 | 83.7 | 51.3 |
| Slc16a9 | 1 | 59.7 | 64.3 |
| Slc16a9 | 2 | 68.7 | 57.9 |
| Slc16a9 | 3 | 47.8 | 68.2 |
| Prss29 | 1 | 143 (active) | 43.3 |
| Prss29 | 2 | 55.3 | 68.6 |
| Prss29 | 3 | 92.4 | 62.2 |
| Apex2 | 1 | 78.4 | 87.9 |
| Apex2 | 2 | 108 | 105 |
| Apex2 | 3 | 88.4 | 90.5 |
| Pkn3 | 1 | 71.9 | 67.6 |
| Pkn3 | 2 | 92.5 | 75.4 |
| Pkn3 | 3 | 102 | 125 |
| Gpat4 | 1 | 109 | 99.2 |
| Gpat4 | 2 | 53.4 | 72.5 |
| Gatd1 | 1 | 74.5 | 54.9 |
| Gatd1 | 2 | 70 | 72.9 |
| Gatd1 | 3 | 114 | 101 |
| Mettl9 | 1 | 118 | 87.6 |
| Mettl9 | 2 | 145 (active) | 115 |
| Mettl9 | 3 | 86.9 | 62.6 |
| Nefm | 1 | 74.4 | 75.8 |
| Nefm | 2 | 50.9 | 55.7 |
| Nefm | 3 | 111 | 70.5 |
| Gemin5 | 1 | 53.3 | 69.4 |
| Gemin5 | 2 | 70.6 | 73.8 |
| Gemin5 | 3 | 52 | 83.5 |
| Irf9 | 1 | 77.8 | 77.9 |
| Irf9 | 2 | 72.3 | 74.1 |
| Irf9 | 3 | 99.8 | 125 |
| Spdye4a | 1 | 114 | 63.9 |
| Spdye4a | 2 | 79.8 | 66.5 |
| Spdye4a | 3 | 52.1 | 73.3 |
| Manea | 1 | 87.9 | 72.5 |
| Manea | 2 | 91.2 | 63 |
| Manea | 3 | 58.6 | 59.9 |
| Iqub | 1 | 40.1 | 72.5 |
| Iqub | 2 | 90 | 59.9 |
| Iqub | 3 | 81.3 | 86.5 |
| Or14c46 | 1 | 39.9 | 25.6 |
| Or14c46 | 2 | 85 | 67.7 |
| Or14c46 | 3 | 96.5 | 59.7 |
| Mettl15 | 1 | 96.5 | 61.4 |
| Mettl15 | 2 | 62.8 | 64 |
| Mettl15 | 3 | 35.5 | 54.3 |
| Get1 | 1 | 59.6 | 52.4 |
| Get1 | 2 | 82.4 | 76.5 |
| Get1 | 3 | 68.3 | 96.2 |
| Cdk14 | 1 | 60.2 | 64.8 |
